These are yes or no findings as the source states them, for the method shown. In cells and extracts the contact can be indirect. Some results given as binding are weak or reduced against the parent protein; the word gives no strength.
Biological target: FLAG-tagged Rpb3 (S. cerevisiae) (UniProt P16370)
Experiment: co-IP; Rpb3-FLAG precipitated with anti-Flag agarose from whole cell lysates of uncrosslinked wildtype and spt6-1004 cells at 30 °C and after the shift to 37 °C; IP buffer 20 mM Hepes-KOH pH 7.6, 125 mM potassium acetate, 1% NP-40; 2 h at 4 °C; Western blot

By UniProt entry, the sequences of proteins in these tests, tags left out.
UniProt P16370: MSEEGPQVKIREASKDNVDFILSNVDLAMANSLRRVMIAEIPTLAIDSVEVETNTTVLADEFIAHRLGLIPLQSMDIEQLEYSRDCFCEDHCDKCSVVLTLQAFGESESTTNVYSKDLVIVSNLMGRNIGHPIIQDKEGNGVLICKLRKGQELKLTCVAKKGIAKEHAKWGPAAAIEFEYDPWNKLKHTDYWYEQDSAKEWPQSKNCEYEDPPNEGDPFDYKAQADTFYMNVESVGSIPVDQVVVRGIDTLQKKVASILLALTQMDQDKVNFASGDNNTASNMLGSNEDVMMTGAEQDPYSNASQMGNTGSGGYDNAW
UniProt P24783: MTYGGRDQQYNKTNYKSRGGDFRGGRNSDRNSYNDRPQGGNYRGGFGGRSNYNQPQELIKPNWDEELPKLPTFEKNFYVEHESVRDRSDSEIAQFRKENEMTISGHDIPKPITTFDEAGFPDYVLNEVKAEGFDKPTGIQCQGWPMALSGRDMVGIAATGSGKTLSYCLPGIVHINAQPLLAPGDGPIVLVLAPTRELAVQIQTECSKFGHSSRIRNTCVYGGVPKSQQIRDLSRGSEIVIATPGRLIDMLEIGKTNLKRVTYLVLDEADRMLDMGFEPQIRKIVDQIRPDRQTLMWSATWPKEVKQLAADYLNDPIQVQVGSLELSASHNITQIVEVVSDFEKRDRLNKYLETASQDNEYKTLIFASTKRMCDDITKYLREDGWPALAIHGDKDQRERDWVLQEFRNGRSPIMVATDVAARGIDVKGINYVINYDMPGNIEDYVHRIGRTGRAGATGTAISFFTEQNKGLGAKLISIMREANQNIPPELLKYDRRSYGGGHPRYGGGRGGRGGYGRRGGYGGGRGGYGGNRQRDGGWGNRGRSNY
UniProt P32657: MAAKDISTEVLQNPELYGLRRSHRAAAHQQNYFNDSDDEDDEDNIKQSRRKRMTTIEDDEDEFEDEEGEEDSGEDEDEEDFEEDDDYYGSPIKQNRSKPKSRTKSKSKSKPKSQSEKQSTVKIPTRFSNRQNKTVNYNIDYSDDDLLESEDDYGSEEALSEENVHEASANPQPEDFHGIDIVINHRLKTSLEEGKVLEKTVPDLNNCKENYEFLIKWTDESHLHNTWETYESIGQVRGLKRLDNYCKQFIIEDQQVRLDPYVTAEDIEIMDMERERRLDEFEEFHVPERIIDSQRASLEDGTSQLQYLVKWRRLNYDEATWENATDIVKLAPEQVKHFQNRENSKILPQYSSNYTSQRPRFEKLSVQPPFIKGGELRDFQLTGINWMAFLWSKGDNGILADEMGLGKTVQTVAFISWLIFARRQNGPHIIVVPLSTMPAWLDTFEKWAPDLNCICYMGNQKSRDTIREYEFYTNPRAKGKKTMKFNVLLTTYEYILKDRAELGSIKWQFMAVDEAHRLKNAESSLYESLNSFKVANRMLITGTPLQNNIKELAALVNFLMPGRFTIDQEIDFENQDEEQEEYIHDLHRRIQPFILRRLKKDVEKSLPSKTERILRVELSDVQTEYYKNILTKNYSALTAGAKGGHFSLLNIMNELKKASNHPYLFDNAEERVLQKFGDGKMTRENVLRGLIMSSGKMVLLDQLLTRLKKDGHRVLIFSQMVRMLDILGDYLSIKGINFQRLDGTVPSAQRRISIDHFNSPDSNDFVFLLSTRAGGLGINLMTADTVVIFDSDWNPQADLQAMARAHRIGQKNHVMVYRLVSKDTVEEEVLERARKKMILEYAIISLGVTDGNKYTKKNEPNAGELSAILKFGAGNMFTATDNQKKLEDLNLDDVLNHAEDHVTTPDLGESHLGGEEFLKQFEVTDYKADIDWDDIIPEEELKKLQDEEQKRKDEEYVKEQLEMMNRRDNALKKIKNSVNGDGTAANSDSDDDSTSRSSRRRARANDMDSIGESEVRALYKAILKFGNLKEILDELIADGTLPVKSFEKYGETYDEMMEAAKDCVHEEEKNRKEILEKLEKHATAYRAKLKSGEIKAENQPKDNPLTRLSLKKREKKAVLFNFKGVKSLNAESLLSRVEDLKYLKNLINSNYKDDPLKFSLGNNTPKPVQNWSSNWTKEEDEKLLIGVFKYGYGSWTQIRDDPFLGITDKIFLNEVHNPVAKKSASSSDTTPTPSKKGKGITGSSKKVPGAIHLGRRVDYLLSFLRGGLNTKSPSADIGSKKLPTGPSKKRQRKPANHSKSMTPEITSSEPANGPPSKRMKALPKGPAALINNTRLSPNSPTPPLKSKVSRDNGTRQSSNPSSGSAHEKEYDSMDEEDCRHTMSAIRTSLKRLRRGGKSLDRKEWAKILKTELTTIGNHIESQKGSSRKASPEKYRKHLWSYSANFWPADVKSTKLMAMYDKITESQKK
UniProt P32783: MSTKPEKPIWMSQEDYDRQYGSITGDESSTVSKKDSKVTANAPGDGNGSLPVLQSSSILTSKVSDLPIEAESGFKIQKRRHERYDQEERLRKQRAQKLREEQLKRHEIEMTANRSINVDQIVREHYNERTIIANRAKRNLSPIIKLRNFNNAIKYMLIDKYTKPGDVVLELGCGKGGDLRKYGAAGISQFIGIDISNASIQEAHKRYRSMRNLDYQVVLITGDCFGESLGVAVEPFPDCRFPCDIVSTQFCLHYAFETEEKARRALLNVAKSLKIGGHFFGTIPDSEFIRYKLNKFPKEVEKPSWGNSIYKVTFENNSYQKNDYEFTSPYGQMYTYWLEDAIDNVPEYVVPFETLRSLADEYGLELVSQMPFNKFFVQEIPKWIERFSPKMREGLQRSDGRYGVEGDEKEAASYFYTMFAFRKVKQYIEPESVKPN
UniProt Q01159: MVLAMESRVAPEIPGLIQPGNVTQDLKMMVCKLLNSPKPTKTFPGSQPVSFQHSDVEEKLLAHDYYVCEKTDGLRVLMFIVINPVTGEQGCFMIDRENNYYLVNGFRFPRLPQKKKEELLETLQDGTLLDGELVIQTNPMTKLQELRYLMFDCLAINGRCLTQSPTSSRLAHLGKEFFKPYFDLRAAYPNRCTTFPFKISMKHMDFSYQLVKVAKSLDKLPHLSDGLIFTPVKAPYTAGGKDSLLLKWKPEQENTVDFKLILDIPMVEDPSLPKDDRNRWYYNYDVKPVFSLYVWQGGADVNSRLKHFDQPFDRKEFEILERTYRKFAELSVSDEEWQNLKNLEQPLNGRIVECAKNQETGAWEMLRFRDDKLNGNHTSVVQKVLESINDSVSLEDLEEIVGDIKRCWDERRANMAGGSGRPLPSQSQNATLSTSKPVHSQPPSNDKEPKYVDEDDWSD

Dbp2 (from UniProt P24783 1-546)
binding: binds

Chd1 (from UniProt P32657 1-1468)
binding: binds

Abd1 (from UniProt P32783 1-436) (enzyme)
binding: binds

Ceg1 (from UniProt Q01159 1-459) (enzyme)
binding: binds

— PMC8511950
